No constants are given. Whether binding was seen depends on the method and setting. In cells and extracts the contact can be indirect. Some results given as binding are weak or reduced against the parent protein; the word gives no strength.

By UniProt entry, the sequences of proteins in these tests, tags left out.
UniProt P17096: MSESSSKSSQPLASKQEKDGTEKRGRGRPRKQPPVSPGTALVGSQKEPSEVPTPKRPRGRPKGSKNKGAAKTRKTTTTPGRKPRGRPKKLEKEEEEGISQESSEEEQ
UniProt P08047: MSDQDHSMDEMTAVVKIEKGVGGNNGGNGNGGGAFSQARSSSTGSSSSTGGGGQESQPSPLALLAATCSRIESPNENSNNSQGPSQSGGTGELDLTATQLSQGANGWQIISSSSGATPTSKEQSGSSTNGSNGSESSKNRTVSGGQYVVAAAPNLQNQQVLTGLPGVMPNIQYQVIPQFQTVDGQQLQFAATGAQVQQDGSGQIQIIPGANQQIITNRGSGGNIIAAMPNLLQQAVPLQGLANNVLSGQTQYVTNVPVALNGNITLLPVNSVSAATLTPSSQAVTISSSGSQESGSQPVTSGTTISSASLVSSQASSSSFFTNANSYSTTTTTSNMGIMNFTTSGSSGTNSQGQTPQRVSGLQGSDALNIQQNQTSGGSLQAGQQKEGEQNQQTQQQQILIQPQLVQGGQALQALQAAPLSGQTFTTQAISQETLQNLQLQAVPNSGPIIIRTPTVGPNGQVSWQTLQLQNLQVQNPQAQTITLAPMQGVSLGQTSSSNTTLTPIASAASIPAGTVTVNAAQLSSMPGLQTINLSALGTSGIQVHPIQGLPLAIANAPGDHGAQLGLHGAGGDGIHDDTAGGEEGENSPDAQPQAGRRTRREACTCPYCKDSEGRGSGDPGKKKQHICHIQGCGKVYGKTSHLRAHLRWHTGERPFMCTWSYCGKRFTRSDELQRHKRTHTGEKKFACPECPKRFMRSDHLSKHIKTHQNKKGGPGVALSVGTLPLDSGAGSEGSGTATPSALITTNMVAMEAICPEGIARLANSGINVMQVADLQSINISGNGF

Test [1] deals with T1, Transketolase (TKT), overexpressed in KYSE30 cells (human) (UniProt P29401).
T1 sequence: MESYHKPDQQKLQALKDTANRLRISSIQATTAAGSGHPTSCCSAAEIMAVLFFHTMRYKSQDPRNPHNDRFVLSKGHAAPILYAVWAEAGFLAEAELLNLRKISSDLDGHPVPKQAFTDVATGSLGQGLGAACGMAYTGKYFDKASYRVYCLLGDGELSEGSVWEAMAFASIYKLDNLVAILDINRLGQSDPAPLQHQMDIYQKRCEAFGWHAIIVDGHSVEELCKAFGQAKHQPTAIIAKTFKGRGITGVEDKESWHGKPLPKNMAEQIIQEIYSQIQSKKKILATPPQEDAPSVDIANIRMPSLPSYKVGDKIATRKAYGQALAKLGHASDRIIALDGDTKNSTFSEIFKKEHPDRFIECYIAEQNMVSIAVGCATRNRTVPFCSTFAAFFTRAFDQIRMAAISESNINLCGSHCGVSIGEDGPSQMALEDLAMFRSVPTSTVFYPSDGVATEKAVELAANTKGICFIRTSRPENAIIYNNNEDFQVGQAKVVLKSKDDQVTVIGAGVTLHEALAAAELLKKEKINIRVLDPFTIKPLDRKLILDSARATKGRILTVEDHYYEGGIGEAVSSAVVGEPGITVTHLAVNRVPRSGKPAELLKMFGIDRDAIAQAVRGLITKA
Kind of test: co-IP; TKT-overexpressed KYSE30 cells; RIPA lysate, 800 ug lysate with 5 ug antibody against TKT or IgG overnight at 4 C, Protein-A/G beads 2 h, western blot.

Test [2] has as its target High-mobility group AT-hook 1 (HMGA1) (human (endogenous in KYSE30)) (UniProt P17096). Kind of test: co-IP; endogenous proteins in KYSE30 cells; RIPA lysate, 800 ug lysate with 5 ug antibody against HMGA1 or IgG overnight at 4 C, Protein-A/G beads 2 h, western blot. (A western blot detects proteins with antibodies after separation by electrophoresis.)
The target in test [3] is Transcription factor specificity protein 1 (Sp1) (human (endogenous in KYSE30)) (UniProt P08047). Kind of test: co-IP; TKT-overexpressed KYSE30 cells; RIPA lysate, 800 ug lysate with 5 ug antibody against Sp1 or IgG overnight at 4 C, Protein-A/G beads 2 h, western blot.

Take “Transcription factor specificity protein 1 (Sp1) (from UniProt P08047 1-785)”: the binding result in test [1] is recorded as “no binding”; in test [2] it was “binds”.
Consider “High-mobility group AT-hook 1 (HMGA1) (from UniProt P17096 1-107)”, for which the binding entry in test [1] is “no binding”; in test [3] it was “binds”.

B1: Transketolase (TKT), endogenous (enzyme, UniProt P29401 1-623)
chain: T1 sequence
For B1, the binding entry in test [2] is “no binding”.

B2: Transketolase (TKT), overexpressed in KYSE30 cells (enzyme, UniProt P29401 1-623)
chain: T1 sequence
Take B2: the binding entry in test [3] is recorded as “no binding”.
